Experimental data as given in publication PMC10665427.
Results are given in words; binding and its absence hold for the method and conditions named. In cells and extracts the contact can be indirect. A result given as binding can be weak or reduced; the word gives no strength.

Legend:
[1] = biological target: 3xFLAG-LarA-V86A-V88A (C. crescentus); experiment: co-IP; α-FLAG M2 antibody on Dynabeads Protein G; cleared BugBuster lysates of WT C. crescentus overexpressing F-LarA variants (xylose 1 h); 2.5 h at 4 °C; immunoblot for Lon; empty vector as control
[2] = biological target: N-terminally 3xFLAG-tagged LarA (C. crescentus); experiment: as above

B1: Lon, endogenous (enzyme, UniProt B8GX12 1-799)
chain: MSELRTLPVLPLRDIVVFPHMVVPLFVGRDKSVRALEEVMRGDKQILLVTQKNSADDDPAPGDIFEVGVLATVLQLLKLPDGTVKVLVEGKARAAVVSFTDQESYYEAQIGEVSEDDGAGPEAEALSRAVVEQFENYVKLNKKVPPEALASIPQIAEPGKLADSIAAHLSVKIGDKQNLLEIFDVVKRLEKVFALMEGEISVLQVEKKIRSRVKRQMEKTQREYYLNEQMKAIQRELGDPDDARDELIDLEKRIKKTKLSKEARTKAESELKKLRNMSPMSAESTVVRNYLDWLLSIPWGKAKTKKIDLVESEGILDADHYGLEKVKERILEYLAVQARTNSLKGPILCLVGPPGVGKTSLGKSIAKATGREFVRMSLGGVRDEAEIRGHRRTYIGSMPGKVVQSMKKAKTTNAFVLLDEIDKMGSDYRGDPASALLEVLDPSQNSTFGDHYLEVDYDLSQVMFVTTANSLNMPQPLLDRMEIIRIPGYTEDEKLEIAKRHILPKLAKDHGLKPAEFIVPDKAIRDLIRYYTREAGVRSLERELGALARKTVRDLAREKVASITIDDERLAKYAGVKKYRYGETDEVDQVGIVTGLAWTEFGGDILTIEAVKMPGKGRMQITGNLKDVMKESIAAANSYVRSRALQFGIKPPVFEKTDVHIHVPDGATPKDGPSAGIAMALAMVSVLTGIPIRKDIAMTGEITLRGRVTAIGGLKEKLLAALRSGVKTVLIPQENEKDLADVPQTVKDGLEIIPVSTVDEVLKHALTGPLTPVEWNEAEEPITTSAKKDDGDSDAMLTH
B1 was tested, and the binding [1] was “binds” and the binding [2] was “binds”.
